Values of other authors, collected in patent publication US20110015182A1, “NOVEL CARBAMATE AMINO ACID AND PEPTIDE PRODRUGS OF OPIOIDS AND USES THEREOF” (priority 2009, published 2011).
Some entries share one result that the patent states for a list of compounds.

Settings: oral dosing; high first pass effect

Row | SMILES | oral bioavailabilities
1 | CCC1(c2cccc(O)c2)CCCCN(C)C1 (centres unmarked) [meptazinol] | less than 10%
2 | CN1CC[C@]23c4c5ccc(O)c4O[C@H]2C(=O)CC[C@@]3(O)[C@H]1C5 [oxymorphone] | less than 10%
